At least one compound was matched to its structure with a doubt left.
Legend:
[1] = test system: mice; test: Mice Behavior in the Elevated Plus Maze (anxiolytic action); type: in vivo
[2] = test system: male mice of BALB/c line; test: Passive Avoidance of mice in the Shuttle Chamber, memory disturbed by Scopolamine; type: in vivo; settings: Scopolamine 0.3 mg/kg, injected 30 minutes before training

With `CSc1nn2c3c(c(C)nc2c1S(=O)(=O)c1ccccc1)CNCC3` [1.2(2), 5-methyl-2-methylsulfanyl-3-phenylsulfonyl-6,7,8,9-tetrahydropyrazolo[1,5-a]pyrido[4,3-e]pyrimidine] the “anxiolytic (tranquilizing) action” value [1] was “exhibits anxiolytic (tranquilizing) action which is comparable with the activity of Buspirone and Lorasepam” and the “nootropic action (enhancement of memory disturbed by Scopolamine)” value [2] was “confirm nootropic action”.

— patent US8569318B2, “Tetrahydro-pyrazolo[1,5-a]pyrido-pyrimidines as antagonists of serotonin 5-HT6 receptors, methods for the production and use thereof” (priority 2008, dated 2013)
